Laboratory results from US9095598B2, “Stilbenoid derivatives and their uses” (The Board of Trustees of the University of Arkansas, priority 2010, dated 2015).
Some entries share one result that the patent states for a list of compounds. At least one compound was matched to its structure with a doubt left.

Chains of the proteins cited; added tags and fusions are not shown.
UniProt P34972, whole entry: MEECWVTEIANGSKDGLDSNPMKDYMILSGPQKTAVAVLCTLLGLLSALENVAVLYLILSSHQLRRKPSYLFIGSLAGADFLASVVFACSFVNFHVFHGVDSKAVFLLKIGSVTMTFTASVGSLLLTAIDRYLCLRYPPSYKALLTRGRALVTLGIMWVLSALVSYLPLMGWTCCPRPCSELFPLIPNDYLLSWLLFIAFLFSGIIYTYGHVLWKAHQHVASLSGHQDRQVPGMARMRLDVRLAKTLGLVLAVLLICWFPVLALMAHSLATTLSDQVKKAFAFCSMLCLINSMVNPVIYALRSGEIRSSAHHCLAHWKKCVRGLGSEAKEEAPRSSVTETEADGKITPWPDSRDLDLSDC

Target: T1, human CB2 (Homo sapiens, UniProt P34972)
T1 construct: expressed in transfected cells; host or cells: CHO cells, stably transformed; membrane preparations
Assay: CB2 receptor binding, CHO-hCB2 membranes, 3H-CP 55,940 displacement
Conditions: approximately; relative to analogs without isoprenyl group

Question: With `CC(C)/C=C/c1c(O)cc(/C=C/c2ccc(O)cc2)cc1O` [tA3, trans-arachidin-3] as the molecule, how does the “enhancement of binding affinity for CB2 by the isoprenyl group” value read?
Answer: The value was 6-10 fold.

Question: For trans-arachidin-1 [tA1], which “enhancement of binding affinity for CB2 by the isoprenyl group” value is on record?
Answer: Its value is 6-10 fold.
